According to paper PMC1414084:
Results are given in words; binding and its absence hold for the method and conditions named. Some entries that bind do so weakly or less than the wild type.

Legend:
Assay in all cases: two-hybrid; mammalian two-hybrid; bait fused to the Gal4 DNA-binding domain (BIND), prey to the VP16 transcriptional activation domain (ACT); luciferase reporter; cultured mammalian cells, 37°C; positive from 3 times the background activity (level 1), the selected set is level 2 (>=5 to <10 times) and level 3 (>=10 times)
[1] = target: PH0130, hypothetical protein (Pyrococcus horikoshii OT3) (UniProt O57870)
[2] = target: PH0197, hypothetical protein (Pyrococcus horikoshii OT3) (UniProt O57936)
[3] = target: PH0250, hypothetical protein (Pyrococcus horikoshii OT3) (UniProt O57988)
[4] = target: PH0406, hypothetical protein (Pyrococcus horikoshii OT3) (UniProt O58143)
[5] = target: PH1120, hypothetical protein (Pyrococcus horikoshii OT3) (UniProt O58847)
[6] = target: PH1528, hypothetical protein (Pyrococcus horikoshii OT3) (UniProt O59197)
[7] = target: PH0540, S-adenosyl-L-homocysteine hydrolase (Pyrococcus horikoshii OT3) (UniProt O58275)
[8] = target: PH1895, hypothetical protein (Pyrococcus horikoshii OT3) (UniProt O59525)
[9] = target: PHS017, hypothetical protein (Pyrococcus horikoshii OT3) (UniProt O73970)
[10] = target: PH0187, hypothetical protein (Pyrococcus horikoshii OT3) (UniProt O57926)
[11] = target: PH0223, hypothetical protein (Pyrococcus horikoshii OT3) (UniProt O57962)
[12] = target: PH0346, hypothetical protein (Pyrococcus horikoshii OT3) (UniProt O58084)
[13] = target: PH0690, hypothetical protein (Pyrococcus horikoshii OT3) (UniProt O58422)

B1: PH0130, hypothetical protein (protein, UniProt O57870 1-218)
chain: MMFEKLESPKEFSPFKDLSKKIGGLREGDLVGIVVTDQLSHAYFLHLAVSSFPGFSYYLDLSSRLSMDVLSSLGGDPGRIFFGRVYTMGDIISSIKYVSENSLFVVGSLNALDPRKEDILALKSEISEKTLYGMVLIEEQNLNELNLPGEIRRLLIVPEVFEQILVGRISYYRGKYKLTVTVLRAYPDKLSSLGDHEFTVDEEVKKILFPNREGQQSQ
[1]
  binding: binds

B2: PH0197, hypothetical protein (protein, UniProt O57936 1-361)
chain: MLTEVCKMGTNKAFFTNEVPEDRYIAAEKISSLKKPATVMIIGDVDTGKTTLTIYLANELISRGFRVSIIDSDVGQKSILPPATISLAFVDTHFSSLEDLTPFAHYFVGTITPSQFFGEMVIGVMKLAELAKKFSDVVLIDTTGMIYGPGVELKRMKIEAIKPDLILALERENELTPIIKGFEDITLKLRVSDKVKEFSRSERKELRREKWKRYFENSRIVTFNVNDILVTGTSMFQGKPIEEGEKNLLERLFKWLILHGRKLGERYFVVKVDTSEGPRVVDKNVVRYFDFSKLSNLLLGLLDKEGFCQGVGILKAINFSEGRLEVLTPVKDISIITEIRFGRIRVREDGEELGLLDREVL
[2]
  binding: binds

B3: PH0250, hypothetical protein (protein, UniProt O57988 1-207)
chain: MQMNSEKFFKLFRVGETVLVEYSGTSRAELLLYYIVNNSKLPIVVDDILDTYYEFYTRLKVAGFDVAPLENVQVIKMGGTKDIGRVIGRLNISKYVISEQEYMEIVSQLKDYPVINPVLGLHKLILLGNTFENINVVKMVSNYVGREERIAFYFVNRNVIEKHSSPILDLLEEVVTSILEITDSGIIIKKSIKDEIAGKIVSPLLNF
[3]
  binding: binds

B4: PH0406, hypothetical protein (protein, UniProt O58143 1-147)
chain: MGKLNRVLNTKWGNIKLEDNTLIKFRVAIVDVHPFEEASPFGVEFGVNITTGISVYPSEESMRELEGKPIAPSKIPPKEGWIQIKIIEKESALEEVEYEDPELGKYKIRVEIEPVMASKNTQIKTPNGEPWYVVRWVPKITWEKIME
[4]
  binding: binds

B5: PH1120, hypothetical protein (protein, UniProt O58847 1-397)
chain: MIEDNMKLKTGIPALDRILGGGFEKGCNIALVGGMDNDHILLTHQLTNAFLSSGKKVLLVELRQDPASLIKWLSQYNINYEEYLEDGDLKILDGFSNLYSPASISGPDVLPNPLDLGITTAIIRDNVSKEKYDILVFDDITSLYALQTDYKAYVRVIVRLTNSIRKLGASSLVAINSDVLSIQDLSMILMPFEYLIEIREGMIRFKRSFSFINVPGVPYVKTNKGIIPIEDVLKDAVSIRDSLVLTSDGVLKLGEGRVQLIGETSERSLIEFVYRFLGPEKGREFLYGWGRHEVEHLEIPKIESVEEIKEILEEAFEVTRSTGGGILRIVEATKDIIIVEGKNLFPHIRNFPYPAHVHYAGYMAKLLEKATGERWEGEEIKCESQTNDKCIFILRRV
[5]
  binding: binds

B6: PH1528, hypothetical protein (protein, UniProt O59197 1-388)
chain: MEGISKPMERYDSVVFAGMKQDGTIEFIKVYALNEDLAITILDQFLRENNLHPSDFVVIQRGLEDIKGKDIISTRTEEDLSAMLARLGLRLVSNGVLHTRGAEKIYQITAISKSLIERLQGEDKDKVSTIIKEEISIDFSNLKLPEKYMKKLLLLSLMEDTFILNRAELNVPEVIKRAVKGVVSIPRLIERDNIIIKVFDEELHTVQGSYLDRVIITPPVVHWDAHIDELDSFSFQEVEENVYEPPLFVKAMKGFLVLTEPPRDLVVMLLKLKRRGEVKVSLKGRQIRIPLNFTLVVDTKYPERYSGLKFPIRINLPPFDDETFAQMLSMVLGTKVPQDLVAMFPEEYKTFLGVEILSNLWKKLRKRGRKSEIELLKEMATIVTGGII
[6]
  binding: binds

B7: PH0540, S-adenosyl-L-homocysteine hydrolase (protein, UniProt O58275 1-421)
chain: MDCGRDYCVKDLSLADEGWKKIDWVSRFMPVLQHIRREFEEKKPFKGVRIAATLHLEMKTAFLLLTLKAGGAEVSAAASNPLSTQDDVVAALAKAGVKVYAIRGESKEQYYEFMHKALDIRPNIIIDDGADMISLVHKERQELLDEIWGGSEETTTGVIRLRAMERDGVLRFSVIAVNDSYMKYLFDNRYGTGQSTWDGVMRATNLLIAGKNVVVVGYGWCGRGIAMRARGLGATVIVVEVDPIKALEARMDGFLVMNMKEAAKIGDIFITATGDIKCIRREHFELMKDGAIMANAGHFDVEIWKPDLEELAVEISNPRPNVTEYKLKDGRRLYLLADGRLVNLVAADGHPAEIMDMSFALQAKAAEYIKDNHGKLEPRVYILPREIDEMVARIKLASMGIEIEELTEEQKKYLESWEHGT
[7]
  binding: binds

B8: PH1895, hypothetical protein (protein, UniProt O59525 1-217)
chain: MESNQTNQLVNKFLISLPEGKILGYVTDINVEVSGDQYYFILRIKTLENISRGEFHPGMFSSEKKIKIKPSDIVNVGPDVIIIGGGKVPPLREIERLGQIVEDYNALVKELEKRENEIKKLKEEKEKLERELEELKKKIRRLEVIEDDFDHLKEQLIKQEGQLEMAREYIKLLEGVRHDIDNIKANIETLLSGYIEDVVRKIVNDELNARGLKKSPI
[8]
  binding: binds

B9: PHS017, hypothetical protein (protein, UniProt O73970 1-83)
chain: MKCDSGEKMSEVINVRNLIREIEDIEKRLENIKIELLKLKAQQLEAEEIDDEEADQLIREAEEAYKSGEWLTIEEFRKDVGLD
[9]
  binding: binds

B10: PH0187, hypothetical protein (protein, UniProt O57926 1-251)
chain: MEEPIEEKIERTVERVPTGIIDELINGGIPRGSVVLVIGDPKAGKSTFLTQFVYNQIKLGVPVIGVLVDISKYEFISNALEFGWEFTPYLDDKIILLDAYTQRLRKAPKFSFEETIVGDLSNTVNLLDAIKDTTLKILSSVKTDGVVGFISSMTPIFFETSKKEIYKFLEDLREFAHRNRQVWVLEMNSGIEEPYVETMVKAIVDGIIELRLVEEGKTLKRYLRIYGMRRTAHRLDWIEYSITSQGIKLIL
[10]
  binding: binds

B11: PH0223, hypothetical protein (protein, UniProt O57962 1-190)
chain: MNSMELLIIKERRIDYDGSAIRSHWAYRNFGILGDSLVVFRGKCNVKVEEMVDIEDLRLRKEIKGDDMVHYILELFWHPDILLASSLQKLLIARLVELLWNYGIEASRRGDDIYVNGRKLSISIATVSPVSIKIHIGLNVKTVGVPPGVDAIGLEELGIDPTEFMERSAKALVEEIEKVRKDSLKVRWVT
[11]
  binding: binds

B12: PH0346, hypothetical protein (protein, UniProt O58084 1-103)
chain: MSRVKLGHHYYYIVTPQDLRDGKYKGKNIVIEGEIKDKPIIEFLPMELPSYRTIFRVSGFKVEFSGTPNVRMGEKVKVYGVFVGDGIIARAIETEGAIYITEE
[12]
  binding: binds

B13: PH0690, hypothetical protein (protein, UniProt O58422 1-128)
chain: MREEARLLWEQALEDLKTAEVLIEVKRYYASVFFSQQAAEKALKALYIEVKREFPPKTHSLLRLSNELGIKDEEIIDAVLDLNPEYIVTRYPDAANEVPAKIYNERIAVEHLEKAKKVIEFCRQKLGL
[13]
  binding: binds
